We go through 3 molecules from publication PMC10584882 (Communications Biology, 2023).

The chains behind the UniProt entries cited, without tags or fusion partners. Residues count along the entry.
UniProt P07711, 114-333: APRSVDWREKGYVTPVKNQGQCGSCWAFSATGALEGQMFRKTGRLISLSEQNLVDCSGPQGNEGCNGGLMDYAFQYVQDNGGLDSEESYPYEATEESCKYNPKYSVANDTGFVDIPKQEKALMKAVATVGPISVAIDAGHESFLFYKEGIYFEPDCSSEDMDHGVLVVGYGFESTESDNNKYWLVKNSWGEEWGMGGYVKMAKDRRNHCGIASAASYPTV
UniProt O60911, 114-334: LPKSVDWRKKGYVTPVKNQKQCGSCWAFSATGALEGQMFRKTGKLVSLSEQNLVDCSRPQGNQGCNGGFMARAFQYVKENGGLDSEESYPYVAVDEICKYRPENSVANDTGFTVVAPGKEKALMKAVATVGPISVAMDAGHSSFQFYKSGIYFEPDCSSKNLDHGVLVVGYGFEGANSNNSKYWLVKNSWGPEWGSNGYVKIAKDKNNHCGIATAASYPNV

“And” between values parts separate entries of the source, which are not always exact repeats. Identical values can stand only once. This continues a long series; more values of the same kind are listed elsewhere.

For experiment [1], the target named is T1, CatL (Homo sapiens, UniProt P07711).
T1 construct: made in house
The experiment is described as follows: Cathepsin inhibition test, CatL. Format: biochemical. The conditions noted are these: Fig. S3 panel b, single replicates.

Experiment [2] addresses T2, human CatV (Homo sapiens, UniProt O60911).
T2 construct: made in house
The experiment is described as follows: Cathepsin inhibition test, CatV. Format: biochemical. The conditions noted are these: Fig. S3 panel c, single replicates.

[3] abbreviates: inhibitor 11.547 nM, 0.011547 µM.
Setting [4] is: inhibitor 20.833 nM, 0.020833 µM.
Where [5] appears, read: inhibitor 3.572 nM, 0.003572 µM.

For `CC(C)C[C@H](NC(=O)OCc1ccccc1)C(=O)N[C@@H](C[C@@H]1CCNC1=O)C(O)S(=O)(=O)[O-].[Na+]` (stereo partly drawn) [GC376], the “Residual activity (Vi/V0)” value in experiment [1] (inhibitor 0.010 nM, 10 pM) is 1.089 and 0.8692 and 0.9179 and 0.9228 and 0.8369 and 1.086 and 1.123 and 1.046 and 1.0259 and 1.005; in experiment [1] (inhibitor 0.018 nM, 18 pM), 0.9553 and 0.9484 and 1.0727 and 1.068 and 0.9415 and 1.131 and 1.088 and 1.073 and 0.9373 and 0.8527; in experiment [1] (inhibitor 0.032 nM, 32 pM), 1.037 and 1.081 and 0.872 and 1.194 and 0.9422 and 1.08 and 1.038 and 1.012 and 0.9811 and 0.9498; in experiment [1] (inhibitor 0.058 nM, 58 pM), 0.9641 and 1.034 and 0.6771 and 0.5503 and 0.8658 and 0.999 and 0.9682 and 0.994 and 0.9336 and 0.8475; in experiment [1] (inhibitor 0.105 nM, 0.000105 µM), 0.9847 and 0.9836 and 0.6793 and 1.048 and 0.6659 and 0.9278 and 0.8304 and 0.852 and 0.9152 and 0.8608.

In the case of `CCCC[C@H](NC(=O)[C@H](CC(C)C)NC(=O)OCc1ccccc1)C(O)S(=O)(=O)[O-].[Na+]` (stereo partly drawn) [S-Calpeptin], the “Residual activity (Vi/V0)” value in experiment [2] (setting [3]) is 0.004945 and 0.003584 and 0.005378 and -0.00403; in experiment [2] (setting [4]) it was 0.001195 and 0.001884 and -0.002638 and -0.002918 and -0.001742 and 0.001358 and 0.001548 and -0.0005112; in experiment [2] (inhibitor 37.500 nM, 0.0375 µM), 0.0004098 and 0.001527 and -0.005425 and -0.003547 and -0.002661 and 0.000704 and -4.377e-6 and -0.001086; in experiment [1] (setting [5]), 0.1889 and 0.1126 and 0.0816 and 0.08564 and 0.07888 and 0.0994 and 0.09654 and 0.1053 and 0.1351 and 0.192; in experiment [1] (inhibitor 6.430 nM, 0.00643 µM) it was 0.09023 and 0.06878 and 0.04852 and 0.04603 and 0.04406 and 0.1447 and 0.1542 and 0.1761 and 0.07136 and 0.1053; in experiment [1] (setting [3]), 0.04311 and 0.03488 and 0.01135 and 0.02572 and 0.02465 and 0.07778 and 0.08512 and 0.08561 and 0.03388 and 0.04663. Besides, the “Residual activity (Vi/V0)” value in experiment [1] (setting [4]) was 0.02055 and 0.02241 and 0.01478 and 0.0143 and 0.01359 and 0.03507 and 0.03462 and 0.03799 and 0.01516 and 0.02508; in experiment [1] (inhibitor 37.500 nM, 0.0375 µM) it was 0.007548 and 0.01281 and 0.01038 and 0.007111 and 0.007493 and 0.01335 and 0.01353 and 0.01428 and 0.001427 and 0.007719.

As for `CCCC[C@@H](C=O)NC(=O)[C@H](CC(C)C)NC(=O)OCc1ccccc1` [Calpeptin, reference compound], the “Residual activity (Vi/V0)” value in experiment [2] (setting [3]) is 0.007708 and 0.004048 and 0.004391 and 0.0067; in experiment [2] (setting [4]), 0.001343 and -0.0003071 and -0.009431 and 0.0008856 and -0.01566 and -0.0003115 and 0.002893 and 0.00231; in experiment [2] (inhibitor 37.500 nM, 0.0375 µM), 0.0003966 and -0.001731 and -0.01716 and -0.005778 and -0.01402 and 0.0005488 and 0.0007574 and -0.0002626; in experiment [1] (setting [5]), 0.2673 and 0.1573 and 0.07789 and 0.0829 and 0.0678 and 0.2658 and 0.274 and 0.3023 and 0.2407 and 0.2327; in experiment [1] (inhibitor 6.430 nM, 0.00643 µM), 0.152 and 0.0831 and 0.04517 and 0.05425 and 0.04055 and 0.1409 and 0.1492 and 0.1695 and 0.134 and 0.1301; in experiment [1] (setting [3]) it was 0.08926 and 0.05156 and 0.02533 and 0.02926 and 0.02292 and 0.07631 and 0.08599 and 0.09018 and 0.08677 and 0.08979. The “Residual activity (Vi/V0)” value is 0.04987 and 0.02764 and 0.01362 and 0.01575 and 0.01309 and 0.03382 and 0.0383 and 0.04074 and 0.04802 and 0.04395 in experiment [1] (setting [4]); 0.02466 and 0.01627 and 0.006646 and 0.007283 and 0.007039 and 0.01136 and 0.01135 and 0.01282 and 0.02318 and 0.02103 in experiment [1] (inhibitor 37.500 nM, 0.0375 µM).
